According to US20020048812A1, “Isolation and in vitro differentiation of conditionally immortalized murine olfactory receptor neurons” (priority 2000, published 2002):

Tested on: 3NA12 cells
Test: Calcium imaging (Fura-2) of odorant responses in clone 3NA12
Type: cell-based, mouse
Conditions: 10 μM single odorant
Description: Prior to experiments (2-4 days), cells were plated onto glass coverslips and incubated in permissive conditions. To prepare for stimulation, cells were loaded with Fura-2 ([…]) for 30 minutes at 33° C., washed, and allowed to equilibrate for a further 30 minutes at room temperature. At the beginning of the experiment, cells were washed (W) to determine whether the mechanical disturbance associated with changing solution affected intracellular calcium concentrations.
To determine whether cells from the 3NA12 clone were capable of functional responses to odorants, single odorants were applied to cells loaded with Fura-2. […] Since the onset of odorant receptor expression is at c. E13 in the rat (Strotmann et al., 1995), and each of the components of the signal transduction pathway is present in cells cultured in permissive conditions, cells at permissive conditions were chosen for all subsequent experiments.
Cloned olfactory receptor neurons were plated onto glass coverslips up to one week before imaging. On the day of analysis, the culture medium was removed and replaced with MDV containing 2 μM Fura-2-AM (Molecular Probes, Eugene, Oreg.) and 0.2% Pluronic F-127 (Sigma) dissolved in DMSO. […] Cells were illuminated at 340 nm and 380 nm and the emission at 510 nm was monitored using an intensified CCD camera. […]

With CC(C)CC(=O)O [isovaleric acid] the “Cells responding to each odorant” value (1256 cells) was roughly 1% and the “Cells responding to the odorant (increase in intracellular calcium concentration)” value (total of 1256 cells in nineteen experiments, permissive conditions) was 12 cells.
